Assay results: article PMC4075472
These are yes or no findings as the source states them, for the method shown. In cells and extracts the contact can be indirect. Here binding means that the protein was enriched with, or labelled near, the bait; the list need not be complete. Sequences can lack the tags named with a protein. One block for each binder: values may come before it.

Target: T1, CASK-β, full-length wild type, tagged with a C-terminal YFP (Drosophila) (UniProt Q24210)
T1 sequence: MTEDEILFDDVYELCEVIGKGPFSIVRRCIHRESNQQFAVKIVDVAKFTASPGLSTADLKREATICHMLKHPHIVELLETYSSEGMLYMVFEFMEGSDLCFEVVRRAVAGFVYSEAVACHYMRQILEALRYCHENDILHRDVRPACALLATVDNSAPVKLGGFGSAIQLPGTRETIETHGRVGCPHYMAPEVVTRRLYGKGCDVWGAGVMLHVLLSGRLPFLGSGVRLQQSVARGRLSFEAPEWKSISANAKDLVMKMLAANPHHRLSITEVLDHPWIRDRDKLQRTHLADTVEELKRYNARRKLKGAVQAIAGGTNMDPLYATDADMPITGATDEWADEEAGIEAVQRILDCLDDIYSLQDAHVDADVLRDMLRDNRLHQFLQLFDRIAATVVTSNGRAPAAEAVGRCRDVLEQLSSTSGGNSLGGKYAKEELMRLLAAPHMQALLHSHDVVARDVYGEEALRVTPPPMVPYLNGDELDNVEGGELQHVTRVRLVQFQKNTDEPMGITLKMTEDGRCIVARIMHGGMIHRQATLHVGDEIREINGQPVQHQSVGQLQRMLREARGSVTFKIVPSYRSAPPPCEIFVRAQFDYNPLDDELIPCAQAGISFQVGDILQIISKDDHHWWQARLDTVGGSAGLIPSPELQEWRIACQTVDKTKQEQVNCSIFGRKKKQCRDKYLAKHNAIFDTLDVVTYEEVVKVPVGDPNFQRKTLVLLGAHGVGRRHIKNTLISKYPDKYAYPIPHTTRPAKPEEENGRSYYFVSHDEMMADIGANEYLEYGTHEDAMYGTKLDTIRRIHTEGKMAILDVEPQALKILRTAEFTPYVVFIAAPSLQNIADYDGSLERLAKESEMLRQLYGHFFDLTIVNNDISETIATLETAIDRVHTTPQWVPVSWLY
Test: affinity purification with mass spectrometry; as a1, but CASK-YFP (full length, ΔL27 or ΔCaMK) expressed with TH-GAL4 (dopaminergic neurons); decreased: peptide ratio mutant/full length <= 0.5

B1: GlyP, glycogen phosphorylase (enzyme, UniProt Q9XTL9 1-844)
chain: MSKPQSDADRRKQISVRGIAEVGNVTEVKKNFNRHLHYTLVKDRNVSTLRDYYFALANTVKDNMVGRWIRTQQHYYEKDPKRVYYLSLEYYMGRSLTNTMINLGIQSECEEAMYQLGLDIENLEEMEEDAGLGNGGLGRLAACFLDSMATLGLAAYGYGIRYEYGIFAQKIKNGEQVEEPDDWLRYGNPWEKARPEFMLPVNFYGRVIDTPEGKKWVDTQRVFAMPYDNPIPGYNNNHVNTLRLWSAKSPIDFNLKFFNDGDYIQAVLDRNLAENISRVLYPNDNFFEGKELRLKQEYFMCAATLQDIIRRYKASKFGSREAVRNTFDHFPDKVAIQLNDTHPSLAIPELMRILVDEEHLTWEKAWDITVRSCAYTNHTVLPEALERWPVSLLESILPRHLQIIYHINFLHMENVKKKFPDDLDRMRRMSMVEEDGEKRINMAHLSIVGSHAVNGVAAIHSQILKDSLFHDFYEMEPQKFQNKTNGITPRRWLLLCNPGLSDLIAEKIGDEWPVHLDQLVALKKWAKDPNFQRNVARVKQENKLKLAAILEKDYGVKINPSSMFDIQVKRIHEYKRQLLNCLHIITLYNRIKKDPTANFTPRTIMIGGKAAPGYYVAKQIIKLICAVGNVVNNDPIVGDKLKVIFLENYRVTLAEKIMPAADLSEQISTAGTEASGTGNMKFQLNGALTIGTLDGANVEMAEEMGLDNIFIFGMTVDEVEALKKKGYNAYDYYNANPEVKQVIDQIQGGFFSPGNPNEFKNIADILLKYDHYYLLADYDAYIKAQDLVSKTYQNQAKWLEMSINNIASSGKFSSDRTIAEYAREIWGVEPTWEKLPAPEDQPQN
- binding: binds

B2: ADH (enzyme, UniProt P00334 1-256)
chain: MSFTLTNKNVIFVAGLGGIGLDTSKELLKRDLKNLVILDRIENPAAIAELKAINPKVTVTFYPYDVTVPIAETTKLLKTIFAQLKTVDVLINGAGILDDHQIERTIAVNYTGLVNTTTAILDFWDKRKGGPGGIICNIGSVTGFNAIYQVPVYSGTKAAVVNFTSSLAKLAPITGVTAYTVNPGITRTTLVHKFNSWLDVEPQVAEKLLAHPTQPSLACAENFVKAIELNQNGAIWKLDLGTLEAIQWTKHWDSGI
- binding: binds

B4: GS2 (enzyme, UniProt P20478 1-369)
chain: MSARILEDSPNARINKTILDRYLSLPLQENIVQATYVWIDGTGEDLRCKDRTLDFIPQSPKELPVWNYDGSSCYQAEGSNSDTYLYPVAIYKDPFRRGNNILVMCDTYKFDGTPTDTNKRKTCLEVANKCAAEEPWFGIEQEYTFLDFDGHPLGWPKNGFPGPQGPYYCGVGANKVYARDIVDAHYRACLYAGIKVSGTNAEVMPAQWEFQVGPCEGISIGDDLWMARFLLHRISEEFGIVSTLDPKPMPGDWNGAGAHTNVSTKAMREDGGIRDIEKAVAKLSKCHERHIRAYDPKQGQDNARRLTGKHETSSINDFSAGVANRGCSIRIPRGVNDDGKGYFEDRRPSSNCDPYSVVEAILRTICLDE
- binding: binds

B5: INOS (enzyme, UniProt O97477 1-565)
chain: MKPTNNSTLEVISPKVQVDDEFITTDYDYQTSHVKRTADGQLQVHPQTTSLKIRTGRHVPKLGVMLVGWGGNNGSTLTAALEANRRQLKWRKRTGVQEANWYGSITQASTVFIGSDEDGGDVYVPMKELLPMVEPDNIIVDGWDISGLHLGDAMRRAEVLDVALQDQIYDQLAQLRPRPSIYDPDFIAANQSDRADNVIRGTRLEQYEQIRKDIRDFRERSGVDSVIVLWTANTERFADVQPGLNTTSQELIASLEANHSEVSPSTIFAMASIAEGCTYINGSPQNTFVPGLIQLAEEKNVFIAGDDFKSGQTKIKSVLVDFLVGAGIKPVSIASYNHLGNNDGKNLSAPQQFRSKEISKSNVVDDMVASNRLLYGPDEHPDHVVVIKYVPYVGDSKRAMDEYTSEIMMGGHNTLVIHNTCEDSLLATPLILDLVILGELSTRIQLRNAEKESAPWVPFKPVLSLLSYLCKAPLVPQGSQVVNSLFRQRAAIENILRGCIGLPPISHMTLEQRFDFSTITNEPPLKRVKILGQPCSVESVTNGKKLHANGHSNGSAKLATNGNGH
- binding: binds

B7: CG2947, Hsc binding protein (protein, UniProt Q86DS1 1-377)
chain: MAFTMQTGDLKKLKYFIDFALENPTFLNMPQLQFVKDFVEKFGGTVPPGQFNGGSAGGKCPFGGVAGAKANEPANAPEDSEDEKSLSDPESDVELDMEGVIEADSDPAQPMGNYSKKATEEEVEQASELRAQAASAYGQQKFDEAIALYTKAIELSPGNALFHAKRGQAFLKLKKPNACIRDCDVALELNSDLAAGYKFRGRARRLLGDFELAAHDLRQACKLDFDEETDEWLKEVTPNAKKIEQHRLKQERRQAERKIKERQRDQRRARKEQEKHNASSGGSSGEFSGGNPGNGNMSDILGAMSDPEVSAAIQDILSNPGNITKYASNPKIYNLIKKIVPGGDVGAAFGQAGEKAGKPSEPKPKKDSADFVDDGLD
- binding: binds

B8: PGD (enzyme, UniProt P41572 1-481)
chain: MSGQADIALIGLAVMGQNLILNMDEKGFVVCAYNRTVAKVKEFLANEAKDTKVIGADSLEDMVSKLKSPRKVMLLVKAGSAVDDFIQQLVPLLSAGDVIIDGGNSEYQDTSRRCDELAKLGLLFVGSGVSGGEEGARHGPSLMPGGHEAAWPLIQPIFQAICAKADGEPCCEWVGDGGAGHFVKMVHNGIEYGDMQLICEAYHIMQSLGLSADQMADEFGKWNSAELDSFLIEITRDILKYKDGKGYLLERIRDTAGQKGTGKWTAIAALQYGVPVTLIGEAVFSRCLSALKDERVQASSVLKGPSTKAQVANLTKFLDDIKHALYCAKIVSYAQGFMLMREAARENKWRLNYGGIALMWRGGCIIRSVFLGNIKDAYTSQPELSNLLLDDFFKKAIERGQDSWREVVANAFRWGIPVPALSTALSFYDGYRTAKLPANLLQAQRDYFGAHTYELLGQEGQFHHTNWTGTGGNVSASTYQA
- binding: binds

B9: Pdi, protein disulfide isomerase (enzyme, UniProt P54399 19-496)
chain: AEAEVKVEEGVLVATVDNFKQLIADNEFVLVEFYAPWCGHCKALAPEYAKAAQQLAEKESPIKLAKVDATVEGELAEQYAVRGYPTLKFFRSGSPVEYSGGRQAADIIAWVTKKTGPPAKDLTSVADAEQFLKDNEIAIIGFFKDLESEEAKTFTKVANALDSFVFGVSSNADVIAKYEAKDNGVVLFKPFDDKKSVFEGELNEENLKKFAQVQSLPLIVDFNHESASKIFGGSIKSHLLFFVSREGGHIEKYVDPLKEIAKKYRDDILFVTISSDEEDHTRIFEFFGMNKEEVPTIRLIKLEEDMAKYKPESDDLSAETIEAFLKKFLDGKLKQHLLSQELPEDWDKNPVKVLVSSNFESVALDKSKSVLVEFYAPWCGHCKQLAPIYDQLAEKYKDNEDIVIAKMDSTANELESIKISSFPTIKYFRKEDNKVIDFNLDRTLDDFVKFLDANGEVADSEPVEETEEEEEAPKKDEL
- binding: binds

B10: JAFRAC1 (enzyme, UniProt Q9V3P0 1-194)
chain: MPQLQKPAPAFAGTAVVNGVFKDIKLSDYKGKYLVLFFYPLDFTFVCPTEIIAFSESAAEFRKINCEVIGCSTDSQFTHLAWINTPRKQGGLGSMDIPLLADKSMKVARDYGVLDEETGIPFRGLFIIDDKQNLRQITVNDLPVGRSVEETLRLVQAFQYTDKYGEVCPANWKPGQKTMVADPTKSKEYFETTS
- binding: binds

The remaining lines, values ahead:

- binding: binds
B3: prtp, thioredoxin (protein, UniProt Q9VYV3 26-416)
chain: SQEEDTGKQDKQFTVELDPETFDTAIAGGNVFVKFFAPWCGHCKRIQPLWEQLAEIMNVDNPKVIIAKVDCTKHQGLCATHQVTGYPTLRLFKLGEEESVKFKGTRDLPAITDFINKELSAPAEADLGEVKREQVENLNIGKVVDLTEDTFAKHVSTGNHFVKFFAPWCSHCQRLAPTWEDLAKELIKEPTVTISKIDCTQFRSICQDFEVKGYPTLLWIEDGKKIEKYSGARDLSTLKTYVEKMVGVPLEKTAGEAGDEKVVIEEVAGEEDAAKKLTPQQLTGEDEFDQAIAEGVAFIKFYAPWCGHCQKLQPTWEQLATETHQAQSSVKIAKVDCTAPENKQVCIDQQVEGYPTLFLYKNGQRQNEYEGSRSLPELQAYLKKFLGHDEL

- binding: binds
B6: Pgk, phosphoglycerokinase (enzyme, UniProt Q01604 1-415)
chain: MAFNKLSIENLDLAGKRVLMRVDFNVPIKEGKITSNQRIVAALDSIKLALSKKAKSVVLMSHLGRPDGNKNIKYTLAPVAAELKTLLGQDVIFLSDCVGSEVEAACKDPAPGSVILLENVRFYVEEEGKGLDASGGKVKADPAKVKEFRASLAKLGDVYVNDAFGTAHRAHSSMMGDGFEQRAAGLLLNKELKYFSQALDKPPNPFLAILGGAKVADKIQLIENLLDKVNEMIIGGGMAFTFLKVLNNMKIGGSLFDEEGSKIVEKLVEKAKKNNVQLHLPVDFVCGDKFAENAAVSEATVEAGIPDGHMGLDVGPKTRELFAAPIARAKLIVWNGPPGVFEFPNFANGTKSIMDGVVAATKNGTVSIIGGGDTASCCAKWNTEALVSHVSTGGGASLELLEGKTLPGVAALTSA

- binding: binds
B11: SOD2 (enzyme, UniProt Q00637 18-217)
chain: KHTLPKLPYDYAALEPIICREIMELHHQKHHQTYVNNLNAAEEQLEEAKSKSDTTKLIQLAPALRFNGGGHINHTIFWQNLSPNKTQPSDDLKKAIESQWKSLEEFKKELTTLTVAVQGSGWGWLGFNKKSGKLQLAALPNQDPLEASTGLIPLFGIDVWEHAYYLQYKNVRPSYVEAIWDIANWDDISCRFQEAKKLGC
